{
  "sequences": {"note": "By UniProt entry, the sequences of proteins in these tests, tags left out. Where a name states a change or a piece, a line headed by the entry shows the natural chain unless it says otherwise.", "UniProt P05067": "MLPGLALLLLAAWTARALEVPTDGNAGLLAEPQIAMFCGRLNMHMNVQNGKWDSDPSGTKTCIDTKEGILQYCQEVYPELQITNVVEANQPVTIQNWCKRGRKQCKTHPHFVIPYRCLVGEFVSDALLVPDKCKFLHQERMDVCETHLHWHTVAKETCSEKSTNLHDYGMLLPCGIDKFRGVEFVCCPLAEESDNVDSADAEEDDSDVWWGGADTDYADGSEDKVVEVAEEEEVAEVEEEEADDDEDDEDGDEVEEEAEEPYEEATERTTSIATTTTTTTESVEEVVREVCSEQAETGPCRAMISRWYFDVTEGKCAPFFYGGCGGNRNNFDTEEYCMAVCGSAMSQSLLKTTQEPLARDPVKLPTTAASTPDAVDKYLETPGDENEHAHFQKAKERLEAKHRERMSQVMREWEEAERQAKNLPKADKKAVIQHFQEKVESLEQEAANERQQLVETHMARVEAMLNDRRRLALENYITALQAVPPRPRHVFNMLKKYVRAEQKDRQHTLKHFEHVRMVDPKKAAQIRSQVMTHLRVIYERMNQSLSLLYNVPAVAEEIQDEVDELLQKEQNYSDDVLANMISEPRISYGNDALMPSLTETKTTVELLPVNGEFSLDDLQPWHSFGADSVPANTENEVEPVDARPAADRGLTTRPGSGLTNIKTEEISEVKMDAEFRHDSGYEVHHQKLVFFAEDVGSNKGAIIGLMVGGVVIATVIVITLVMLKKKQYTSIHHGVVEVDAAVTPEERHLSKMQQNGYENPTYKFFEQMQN"},
  "source": "patent US20060235199A1",
  "about": "(priority 2003, published 2006)",
  "key": {"[1]": {"experiment": "Evaluation, with ThT, of the ability of the artificial peptide used alone to form amyloid fibrils", "settings": "for increase in ThT fluorescent intensity with time, peptide alone: peptide 200 μM", "experimental": "The peptide (10-4F), (10-3L), (10-3F), (10-3A), Aβ (14-23) or Aβ (10-35) synthesized in Example 1, which was contained alone in an aqueous solution, was evaluated for its ability to form amyloid fibrils. The secondary structure was examined using a CD spectrum, and the ability to form amyloid fibrils was evaluated with dye thioflavin T (ThT) binding specifically to amyloid fibrils to emit fluorescence, under a transmission electron microscope (TEM). The ability of each artificial peptide obtained in Example 1 to form amyloid fibrils when used alone was evaluated using ThT. Starting solution used: [peptide]=2 mM solution in TFE Concentration: [peptide]=200 μM in 20 mM Tris-HCl buffer (pH 7.4) Temperature: room temperature or 40° C. Concentrations: [peptide]=5 μM, [ThT]=6 μM (20 mM Tris-HCl buffer (pH 7.4)) Temperature: room temperature Stirring conditions: The whole volume of the reaction mixture was sufficiently stirred with a Pasteur pipette before sampling, and then sufficiently stirred in a cell with a Pasteur pipette. Excitation wavelength: 440 nm, detection wavelength: 482 nm. The formation of fibrils was slow at ordinary temperatures to make it difficult to monitor the change with time, so the ability of each artificial peptide used alone to form fibrils was then evaluated at an elevated temperature of 40° C. estimated to accelerate formation of fibrils."}, "[2]": {"experiment": "general procedure: Fmoc solid-phase peptide synthesis; NovaSyn TGR resin; HBTU/HOBt-H2O/DIEA", "settings": "whole synthesis, scale 20 μmol"}, "[3]": {"experiment": "Observation under TEM of samples whose fluorescent intensity change was finished"}, "[4]": {"settings": "samples after incubation at 40° C., (1-3) in Example 2"}},
  "note": "Some entries repeat one wording, which the source may state once for all of them.",
  "data": [
    {"substance": "Ac-KQKLLALLEE-NH2 [10-3A]", "values": [
      {"measurement": "increase in ThT fluorescent intensity, peptide alone", "setting": "[1]; incubation at 40° C.", "result": "hardly showed an increase in influorescent intensity"},
      {"measurement": "increase in ThT fluorescent intensity with time, peptide alone", "setting": "[1]; incubation at room temperature", "result": "did not show an increase in fluorescent intensity"}
    ]},
    {"substance": "Ac-KQKLLFLLEE-NH2 [10-3F]", "values": [
      {"measurement": "increase in ThT fluorescent intensity with time, peptide alone", "setting": "[1]; incubation at room temperature", "result": "significant increase in fluorescent intensity with time"},
      {"measurement": "fluorescent intensity in the end point, compared among peptides", "setting": "[1]; peptide alone, incubation at room temperature", "result": "half or less that of 10-3L or 10-4F"}
    ]},
    {"substance": "Ac-KQKLLLFLEE-NH2", "values": [
      {"measurement": "isolated yield", "setting": "[2]", "result": 35, "unit": "%"}
    ]},
    {"substance": "Ac-KQKLLLFLEE-NH2 [10-4F]", "values": [
      {"measurement": "increase in ThT fluorescent intensity with time, peptide alone", "setting": "[1]; incubation at room temperature", "result": "significant increase in fluorescent intensity with time"},
      {"measurement": "fibrils observed under TEM", "setting": "[3]; [4]", "result": "fibrils were observed"}
    ]},
    {"substance": "Ac-KQKLLLLLEE-NH2 [10-3L]", "values": [
      {"measurement": "increase in ThT fluorescent intensity with time, peptide alone", "setting": "[1]; incubation at room temperature", "result": "significant increase in fluorescent intensity with time"},
      {"measurement": "fibrils observed under TEM", "setting": "[3]; [4]", "result": "fibrils were observed"}
    ]},
    {"substance": "Aβ (10-35): peptide consisting of 10 to 35 residues of amyloid β peptide, used as the nucleus of amyloid fibril (YEVHHQKLVFFAEDVGSNKGAIIGLM; Amyloid-beta protein 42; UniProt P05067 681-706, looked up, fragment) [reference compound]", "values": [
      {"measurement": "fibrils observed under TEM", "setting": "[3]; sample after room temperature incubation, (1-2) in Example 2", "result": "fibrils were observed"}
    ]}
  ]
}
